Some of the results follow. Repeats are few or missing, and single values can be far off.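 Cells were imaged in 1,536-well plates, and nuclei stained with an antibody against cleaved PARP were counted against all DNA-stained nuclei to give the apoptosis fraction. Screening doses were chosen to leave most cells alive, and resting and induced cleaved-PARP levels differ strongly between cell lines.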
Key:
Experiment in all cases: cleaved PARP positive nuclei fraction relative to DMSO control; melanoma cells; higher = more apoptosis
Conditions in all cases: library dose: low library concentration; 72 h
501Mel = test system: 501Mel
A101D = test system: A101D
A2058 = test system: A2058
A375 = test system: A375
C32 = test system: C32
CBRC008 = test system: CBRC008 (line from a melanoma biopsy)
CBRC014 = test system: CBRC014 (line from a melanoma biopsy)
CBRC016 = test system: CBRC016 (line from a melanoma biopsy)
CBRC017 = test system: CBRC017 (line from a melanoma biopsy)
CBRC034 = test system: CBRC034 (line from a melanoma biopsy)
COLO792 = test system: COLO792
COLO800 = test system: COLO800
COLO829 = test system: COLO829
G361 = test system: G361
IPC-298 = test system: IPC-298
IST-MEL1 = test system: IST-MEL1
LB2518-MEL = test system: LB2518-MEL
LOXIMVI = test system: LOXIMVI
MEL-HO = test system: MEL-HO

Compound | cleaved PARP positive nuclei fraction (501Mel) [%] | cleaved PARP positive nuclei fraction (A101D) [%] | cleaved PARP positive nuclei fraction (A2058) [%] | cleaved PARP positive nuclei fraction (A375) [%] | cleaved PARP positive nuclei fraction (C32) [%] | cleaved PARP positive nuclei fraction (CBRC008) [%] | cleaved PARP positive nuclei fraction (CBRC014) [%] | cleaved PARP positive nuclei fraction (CBRC016) [%] | cleaved PARP positive nuclei fraction (CBRC017) [%] | cleaved PARP positive nuclei fraction (CBRC034) [%] | cleaved PARP positive nuclei fraction (COLO792) [%] | cleaved PARP positive nuclei fraction (COLO800) [%] | cleaved PARP positive nuclei fraction (COLO829) [%] | cleaved PARP positive nuclei fraction (G361) [%] | cleaved PARP positive nuclei fraction (IPC-298) [%] | cleaved PARP positive nuclei fraction (IST-MEL1) [%] | cleaved PARP positive nuclei fraction (LB2518-MEL) [%] | cleaved PARP positive nuclei fraction (LOXIMVI) [%] | cleaved PARP positive nuclei fraction (MEL-HO) [%]
Cn1cnc2c(F)c(Nc3ccc(Br)cc3Cl)c(C(=O)NOCCO)cc21 [selumetinib] + CC(C)C[C@H](NC(=O)[C@H](Cc1ccccc1)NC(=O)c1cnccn1)B(O)O [Bortezomib] (first compound 0.015 µM, partner dose 0.001 µM) | 2470 | 81.2 | 71.9 | 189 | 86.1 | 459 | 117 | 117 | 239 | 391 | 51.5 | 119 | 124 | 303 | 233 | 143 | 262 | 288 | 183
COc1ccc(C2=N[C@@H](c3ccc(Cl)cc3)[C@@H](c3ccc(Cl)cc3)N2C(=O)N2CCNC(=O)C2)c(OC(C)C)c1 [Nutlin-3] + CNC(=O)c1cc(Oc2ccc(NC(=O)Nc3ccc(Cl)c(C(F)(F)F)c3)cc2)ccn1 [sorafenib] (first compound 0.1 µM, partner dose 0.4 µM) | 56.9 | 115 | 81.9 | 79.7 | 92.6 | 121 | 79.5 | 118 | 78.4 | 160 | 44.9 | 191 | 60.3 | 48.6 | 95.9 | 57.6 | 117 | 66.4 | 43.4
CN(c1ncccc1CNc1nc(Nc2ccc3c(c2)CC(=O)N3)ncc1C(F)(F)F)S(C)(=O)=O + CC(C)C[C@H](NC(=O)[C@H](Cc1ccccc1)NC(=O)c1cnccn1)B(O)O [Bortezomib] (first compound 0.08 µM, partner dose 0.001 µM) | 442 | 231 | 142 | 93.3 | 94 | 573 | 182 | 177 | 214 | 596 | 69.8 | 130 | 270 | 1050 | 107 | 86.9 | 209 | 199 | 59.9
CCN(CC)CCNC(=O)c1c(C)[nH]c(/C=C2\C(=O)Nc3ccc(F)cc32)c1C [sunitinib] + CC(=O)O[C@@]12CO[C@@H]1C[C@H](O)[C@@]1(C)C(=O)[C@H](O)C3=C(C)[C@@H](OC(=O)[C@H](O)[C@@H](NC(=O)OC(C)(C)C)c4ccccc4)C[C@@](O)([C@@H](OC(=O)c4ccccc4)[C@H]21)C3(C)C [Docetaxel] (first compound 0.4 µM, partner dose 0.0001 µM) | 238 | 191 | 3100 | 2400 | 71.9 | 469 | 142 | 119 | 193 | 180 | 271 | 320 | 219 | 482 | 196 | 137 | 172 | 187 | 186
NC(=O)c1ccc(N(C(N)=O)c2c(F)cccc2F)nc1-c1ccc(F)cc1F + C[C@@H](Oc1cc(-c2cnn(C3CCNCC3)c2)cnc1N)c1c(Cl)ccc(F)c1Cl [Crizotinib] (first compound 0.4 µM, partner dose 0.2 µM) | 152 | 175 | 188 | 176 | 84.5 | 77.4 | 84.8 | 99.7 | 96.7 | 179 | 68.6 | 43.3 | 103 | 83.3 | 43.3 | 62.8 | 113 | 54.8 | 109
Cn1cnc2c(F)c(Nc3ccc(Br)cc3Cl)c(C(=O)NOCCO)cc21 [selumetinib] + Cc1cc(Nc2cc(N3CCN(C)CC3)nc(/C=C/c3ccccc3)n2)n[nH]1 [ENMD2076] (first compound 0.015 µM, partner dose 0.04 µM) | 611 | 69.5 | 154 | 372 | 87.4 | 106 | 82 | 107 | 83.5 | 97.5 | 149 | 47.5 | 112 | 67.4 | 265 | 29.1 | 87.1 | 111 | 176
CS(=O)(=O)c1ccc(C(=O)Nc2ccc(Cl)c(-c3ccccn3)c2)c(Cl)c1 [vismodegib] + COc1ccc(Cl)c(Nc2nc3ccccc3nc2NS(=O)(=O)c2cccc(NC(=O)C(C)(C)N)c2)c1 [XL147] (first compound 1 µM, partner dose 0.8 µM) | 96 | 77.9 | 310 | 141 | 69.9 | 337 | 97.2 | – | 118 | 73.3 | 70.2 | 46.4 | 63 | 70.9 | 94.8 | 142 | 55.9 | 51.2 | 66.9
NC1(c2ccc(-c3nc4ccn5c(=O)[nH]nc5c4cc3-c3ccccc3)cc2)CCC1 + Oc1nc(-c2ccc(C(F)(F)F)cc2)nc2c1CSCC2 [XAV939] (first compound 0.4 µM, partner dose 2 µM) | 56.7 | 23.3 | 72.2 | – | 24.3 | 101 | 66.5 | 53.9 | 78.2 | – | 110 | 83.6 | 54.9 | 79.5 | 112 | 65.2 | 162 | 68.6 | –
CC1(C)CCC(c2ccc(Cl)cc2)=C(CN2CCN(c3ccc(C(=O)NS(=O)(=O)c4ccc(N[C@H](CCN5CCOCC5)CSc5ccccc5)c(S(=O)(=O)C(F)(F)F)c4)cc3)CC2)C1 + COc1ccc(COc2ccc(Cc3cnc(N)nc3N)cc2OC)cc1 [GW2580] (first compound 0.4 µM, partner dose 1 µM) | 203 | 10.2 | 225 | – | 423 | 814 | 328 | 735 | 442 | – | 265 | 133 | 51.5 | 218 | 281 | 96.9 | 88.7 | 104 | –
CN(c1ncccc1CNc1nc(Nc2ccc3c(c2)CC(=O)N3)ncc1C(F)(F)F)S(C)(=O)=O + CC(C)CCN1c2nc(Nc3cc(F)c(O)c(F)c3)ncc2N(C)C(=O)C1C [BID1870] (first compound 0.08 µM, partner dose 0.2 µM) | 91.1 | 10500 | 85 | – | 191 | 315 | 119 | 102 | 118 | – | 188 | 67.8 | 113 | 108 | 47.3 | 38.4 | 67.3 | 84.4 | –
CN(c1ncccc1CNc1nc(Nc2ccc3c(c2)CC(=O)N3)ncc1C(F)(F)F)S(C)(=O)=O + O=S(=O)(c1ccccc1)N(CC(F)(F)F)c1ccc(C(O)(C(F)(F)F)C(F)(F)F)cc1 [T0901317] (first compound 0.08 µM, partner dose 1.4 µM) | 91.3 | 79.3 | 89.9 | – | 134 | 149 | 109 | 52.2 | 167 | – | 55 | 36.6 | 146 | 86.9 | 52 | 83.3 | 82.3 | 89.5 | –
CCCCCCCCc1ccc(CCC(N)(CO)CO)cc1 [fingolimod] + O=C(Nc1ccccc1)c1cc([N+](=O)[O-])ccc1Cl [GW9662] (first compound 2 µM, partner dose 2 µM) | 165 | 40.8 | 143 | – | 84.5 | 47 | 116 | 52.6 | 122 | – | 119 | 24.2 | 73.8 | 52 | 47 | 176 | 31 | 72.7 | –
C[C@]1(O)C[C@@H](c2nc(-c3ccc4ccc(-c5ccccc5)nc4c3)c3c(N)nccn32)C1 + COc1ccc(COc2ccc(Cc3cnc(N)nc3N)cc2OC)cc1 [GW2580] (first compound 0.4 µM, partner dose 1 µM) | 39.4 | 19.5 | 97.8 | – | 160 | 242 | 105 | 60.8 | 93.9 | – | 141 | 64.1 | 127 | 92.4 | 96.6 | 64.7 | 34.1 | 135 | –
CCN(CC)CCNC(=O)c1c(C)[nH]c(/C=C2\C(=O)Nc3ccc(F)cc32)c1C [sunitinib] + COc1cc2ncnc(Nc3ccc(Oc4ccccc4)cc3)c2cc1OC [SrcI1] (first compound 0.4 µM, partner dose 2 µM) | 74.5 | 54.5 | 200 | – | 51.5 | 61.6 | 73.5 | 16.8 | 155 | – | 86.6 | 104 | 60.8 | 87.8 | 81.4 | 124 | 58 | 94.1 | –
NC(=O)c1ccc(N(C(N)=O)c2c(F)cccc2F)nc1-c1ccc(F)cc1F + COc1cc(N2CCC(N3CCN(C)CC3)CC2)ccc1Nc1ncc(Cl)c(Nc2ccccc2S(=O)(=O)C(C)C)n1 [NVP-TAE684] (first compound 0.4 µM, partner dose 0.08 µM) | 30.8 | 54.3 | 72.6 | – | 278 | 36.9 | 83.1 | 18.7 | 80.8 | – | 107 | 160 | 84.3 | 165 | 91.2 | 90.4 | 35.6 | 85.1 | –
C[C@@H](N)c1ccc(C(=O)Nc2ccnc3[nH]ccc23)cc1 + Oc1nc(-c2ccc(C(F)(F)F)cc2)nc2c1CSCC2 [XAV939] (first compound 0.4 µM, partner dose 2 µM) | 61.6 | 29.8 | 75.2 | – | 172 | 153 | 118 | 55.1 | 95.6 | – | 128 | 58.6 | 153 | 151 | 142 | 37.5 | 274 | 96.8 | –

Source: the supplement of paper PMC4604168 (melanoma cell lines)
